This test concerns the target toll-like receptor 2 (hTLR2) on reporter cell line (Invivogen) (human (printed as hTLR2)) (UniProt O60603). Kind of test: hTLR2 reporter cell line, NF-κB/AP-1-driven SEAP read-out; no direct binding assay.

By UniProt entry, the sequences of proteins in these tests, tags left out.
UniProt O60603: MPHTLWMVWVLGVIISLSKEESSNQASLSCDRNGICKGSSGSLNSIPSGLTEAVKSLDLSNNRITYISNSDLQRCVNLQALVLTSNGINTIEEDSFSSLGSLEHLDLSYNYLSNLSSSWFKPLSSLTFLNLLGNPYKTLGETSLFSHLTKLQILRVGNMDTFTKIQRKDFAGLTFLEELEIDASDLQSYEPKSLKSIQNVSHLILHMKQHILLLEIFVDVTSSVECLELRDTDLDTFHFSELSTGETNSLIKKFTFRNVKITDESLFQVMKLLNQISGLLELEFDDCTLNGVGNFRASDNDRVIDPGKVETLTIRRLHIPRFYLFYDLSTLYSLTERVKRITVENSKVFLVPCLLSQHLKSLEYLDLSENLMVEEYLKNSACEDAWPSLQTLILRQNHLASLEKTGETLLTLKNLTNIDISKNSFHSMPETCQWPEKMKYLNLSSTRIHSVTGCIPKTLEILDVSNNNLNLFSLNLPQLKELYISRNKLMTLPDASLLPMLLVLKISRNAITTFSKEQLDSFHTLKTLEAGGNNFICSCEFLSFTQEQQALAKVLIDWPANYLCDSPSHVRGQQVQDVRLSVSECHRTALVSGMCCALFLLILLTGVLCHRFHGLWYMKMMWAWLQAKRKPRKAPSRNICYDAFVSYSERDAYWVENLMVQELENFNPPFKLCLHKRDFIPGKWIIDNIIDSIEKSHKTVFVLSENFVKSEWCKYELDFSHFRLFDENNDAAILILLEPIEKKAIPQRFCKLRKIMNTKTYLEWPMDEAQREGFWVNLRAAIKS

This note sets out measurements from patent US20180265554A1.

These are yes or no findings as the source states them, for the method shown. Some binding calls cover weakened binding; strength is not graded here. Where a sequence is shown, tags or fusion partners need not be part of it.

B1: Amuc-1100 polypeptide (mature, recombinant from E. coli, N-terminal Met added, C-terminal His-Tag) (ligand, not shown: small tags and cut ends)
chain: MIVNSKRSELDKKISIAAKEIKSANAAEITPSRSSNEELEKELNRYAKAVGSLETAYKPFLASSALVPTTPTAFQNELKTFRDSLISSCKKKNILITDTSSWLGFQVYSTQAPSVQAASTLGFELKAINSLVNKLAECGLSKFIKVYRPQLPIETPANNPEESDEADQAPWTPMPLEIAFQGDRESVLKAMNAITGMQDYLFTVNSIRIRNERMMPPPIANPAAAKPAAAQPATGAASLTPADEAAAPAAPAIQQVIKPYMGKEQVFVQVSLNLVHFNQPKAQEPSE
For the molecule B1, the binding entry was “binds”.
